# Results as given in US20050097626A1.
# Results are given in words; binding and its absence hold for the method and conditions named. Binding seen in cells or lysates may run through a third protein. Some entries that bind do so weakly or less than the wild type.
# How the values were obtained:
# p53 (human) [1] = target: p53 (human) (UniProt P04637); assay: reverse co-immunoprecipitation with anti-p53 antibodies DO-1 and PAb240 from transfected RKO cells, Western blot with anti-FLAG
# p53 (human) [2] = target: p53 (human) (UniProt P04637); assay: co-immunoprecipitation with anti-ING5 antibody from lysate of RKO cells transfected with pcDNA3.1-ING5, Western blot for p53
# p53 (human) [3] = target: p53 (human) (UniProt P04637); assay: co-immunoprecipitation from transfected RKO cells (legend of FIG. 10)
# p53 (human) [4] = target: p53 (human) (UniProt P04637); assay: co-immunoprecipitation with anti-ING4 antibody from lysate of RKO cells transfected with pcDNA3.1-ING4, Western blot for p53
Substance,binding (p53 (human) [1]),binding (p53 (human) [2]),binding (p53 (human) [3]),binding (p53 (human) [4])
FLAG-ING4 (from UniProt Q9UNL4 1-249),binds,–,–,–
FLAG-ING5 (from UniProt Q8WYH8 1-240),binds,–,–,–
p28ING5 (from UniProt Q8WYH8 1-240),–,binds,binds,–
p29ING4 (from UniProt Q9UNL4 1-249),–,–,binds,binds
